Reference: PubChem BioAssay AID1259425 (University of Nebraska Medical Center, 2018)
Aim: 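Find knockdowns that reproduce the gene expression pattern seen when KSR1 is lost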 (primary screen). Cell system: HCT116 human colon cancer cells. Knock-down reagent: siRNA pool against human genes, 50 nM siRNA. Read-out: 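After 50 nM siRNA pool, branched-DNA assay measures six marker transcripts per well, minus blank, normalised to the geometric mean of two housekeeping transcripts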. Reading the numbers: BNIP3L mRNA: higher = more BNIP3L transcript after knockdown; NDRG1 mRNA: higher = more NDRG1 transcript after knockdown; BNIP3 mRNA: higher = more BNIP3 transcript after knockdown.
Here is a random part of about 14,000 reagents tested. A reagent listed more than once was tested more than once; the source does not tell the runs apart. Not all columns of the deposit are shown. Reagent sequences are not shown. Not stated in the record: the time to read-out.

gene knocked down	BNIP3L mRNA, set 1	NDRG1 mRNA, set 1	BNIP3 mRNA, set 1
TRIO (trio Rho guanine nucleotide exchange factor)	0.109	0.133	0.419
CHRNA1 (cholinergic receptor nicotinic alpha 1 subunit)	0.083	0.0853	0.238
GLT8D1 (glycosyltransferase 8 domain containing 1)	0.149	0.184	0.285
MED25 (mediator complex subunit 25)	0.193	0.39	0.272
IMP3 (IMP U3 small nucleolar ribonucleoprotein 3)	0.213	0.224	0.367
F8A1 (coagulation factor VIII associated 1)	0.172	0.357	0.305
SRP72 (signal recognition particle 72)	0.0623	0.406	0.432
DRD2 (dopamine receptor D2)	0.176	0.297	0.343
PDE1B (phosphodiesterase 1B)	0.143	0.136	0.224
SMS (spermine synthase)	0.0807	0.112	0.257
SEMA4B (semaphorin 4B)	0.15	0.542	0.413
TCF7L2 (transcription factor 7 like 2)	0.106	0.116	0.25
FLRT3 (fibronectin leucine rich transmembrane protein 3)	0.0633	0.147	0.355
GPR137 (G protein-coupled receptor 137)	0.198	0.175	0.337
VWA8 (von Willebrand factor A domain containing 8)	0.0705	0.355	0.257
HSPB2 (heat shock protein family B (small) member 2)	0.154	0.353	0.227
SNRPB2 (small nuclear ribonucleoprotein polypeptide B2)	0.0937	0.479	0.226
HPR (haptoglobin-related protein)	0.165	0.138	0.23
SMARCAD1 (SNF2 related chromatin remodeling ATPase with DExD box 1)	0.0786	0.174	0.291
ITM2B (integral membrane protein 2B)	0.14	0.0809	0.33
ROBO2 (roundabout guidance receptor 2)	0.0591	0.181	0.213
IGF2-AS (IGF2 antisense RNA)	0.0677	0.232	0.227
PIH1D1 (PIH1 domain containing 1)	0.143	0.516	0.404
PCDHGB3 (protocadherin gamma subfamily B, 3)	0.15	0.301	0.507
CCDC15 (coiled-coil domain containing 15)	0.0447	0.229	0.188
KRT17 (keratin 17)	0.166	0.362	0.313
RGS6 (regulator of G protein signaling 6)	0.0979	0.487	0.29
BCL2L1 (BCL2 like 1)	0.084	0.265	0.376
ARL5A (ARF like GTPase 5A)	0.0594	0.35	0.594
SOX10 (SRY-box transcription factor 10)	0.356	1.7	0.695
KERA (keratocan)	0.0703	0.263	0.37
DSE (dermatan sulfate epimerase)	0.148	0.137	0.273
UFL1 (UFM1 specific ligase 1)	0.216	0.119	0.358
ADAM22 (ADAM metallopeptidase domain 22)	0.0681	0.0798	0.205
GLB1L (galactosidase beta 1 like)	0.112	0.238	0.269
ELK3 (ETS transcription factor ELK3)	0.177	0.19	0.858
CD22 (CD22 molecule)	0.143	0.189	0.217
DNAJC13 (DnaJ heat shock protein family (Hsp40) member C13)	0.359	0.546	0.636
SART1	0.139	0.0872	0.273
DTX1 (deltex E3 ubiquitin ligase 1)	0.0893	0.154	0.18
SP7 (Sp7 transcription factor)	0.138	0.496	0.143
GOLGA1 (golgin A1)	0.1	0.137	0.292
NMRK1 (nicotinamide riboside kinase 1)	0.125	0.264	0.509
CYP26A1 (cytochrome P450 family 26 subfamily A member 1)	0.104	0.222	0.515
PHF24 (PHD finger protein 24)	0.106	0.137	0.186
MED24 (mediator complex subunit 24)	0.193	0.267	0.353
SGTB	0.105	0.178	0.336
KLHL42 (kelch like family member 42)	0.0788	0.314	0.27
YAF2 (YY1 associated factor 2)	0.106	0.134	0.252
ST6GAL2 (ST6 beta-galactoside alpha-2,6-sialyltransferase 2)	0.0584	0.124	0.207
PLEKHH1 (pleckstrin homology, MyTH4 and FERM domain containing H1)	0.255	0.493	0.38
SLTM (SAFB like transcription modulator)	0.118	0.137	0.289
POLA2 (DNA polymerase alpha 2, accessory subunit)	0.112	0.604	0.372
RARB (retinoic acid receptor beta)	0.074	0.171	0.237
RARB (retinoic acid receptor beta)	0.137	0.237	0.283
TUBAL3 (tubulin alpha like 3)	0.0831	0.086	0.251
TRIM39 (tripartite motif containing 39)	0.105	0.287	0.218
ADPGK (ADP dependent glucokinase)	0.0934	0.162	0.192
ARTN (artemin)	0.111	0.46	0.301
SIK2 (salt inducible kinase 2)	0.0657	0.0746	0.295
SAR1B (secretion associated Ras related GTPase 1B)	0.0968	0.383	0.415
BCAS4 (breast carcinoma amplified sequence 4)	0.0839	0.159	0.305
NGRN (neugrin, neurite outgrowth associated)	0.102	0.224	0.41

Looked up above.
Under “NDRG1 mRNA, set 1”, ELK3 (ETS transcription factor ELK3) reads 0.19
Under “BNIP3 mRNA, set 1”, PCDHGB3 (protocadherin gamma subfamily B, 3) reads 0.507
CD22 (CD22 molecule), BNIP3L mRNA, set 1 = 0.143
Value of MED24 (mediator complex subunit 24) under “BNIP3L mRNA, set 1”: 0.193
Result of TUBAL3 (tubulin alpha like 3) under “NDRG1 mRNA, set 1”: 0.086
